In patent publication US8067602B2, “Asymmetric cyanine fluorescent dyes, compositions and their use in staining biological samples” (Shenzhen Mindray Bio-Medical Electronics Co., Ltd., priority 2008, dated 2011):

Legend:
[1] = tested on: soft-shelled turtle (Trionyx sinensis) liver RNA; assay: Fluorescence intensity of dye in PBS with soft-shelled turtle liver RNA (excitation 633 nm); assay type: binding; settings: room temperature
Protocol: (§1) An amount of Dye-1 was accurately weighed and sufficiently dissolved in 2.5 mL methanol/ethylene glycol (50:50 vol/vol) to prepare a dye solution at a concentration of 5 mM. This solution was filtered before use. Separate amounts of soft-shelled turtle (Trionyx sinensis) liver RNA were weighed and dissolved in PBS to obtain PBS buffers containing 30 μg/mL, 10 μg/mL, 3 μg/mL, 1 μg/mL of RNA. 2-μL aliquots of the prepared 5 mM dye solution were accurately measured and respectively combined in 1 mL PBS with 1 μL of the PBS buffers containing different concentrations of RNA. After reacting for a period of time, the complexes were detected for their emission spectra at the selected excitation wavelength of 633 nm. The detection temperature was at room temperature. The instrument used was fluorescence spectrophotometer Model FL-4500.
FIG. 4 is a comparison of the relative fluorescence strength of Dye-1 in PBS before and after it is bound with RNA. As can likewise be seen in the figure, when Dye-1 formed complexes with RNA, there occurred a rapid increase in fluorescence intensity accompanied by a certain degree of red shift of fluorescence, with the maximum […] peak at about 655 nm in the near-infrared region, which can avoid the interference from the background fluorescence of the organisms per se and therefore improve the accuracy of detection.
(§2) The detection procedures followed were those described in Example 10 and Example 11. The fluorescence spectra for the complexes of Dye-2 with different concentrations of DNA or RNA are shown in FIG. 5 and FIG. 6, respectively. The comparisons of fluorescence for Dye-2 before and after it is bound with DNA or with RNA in PBS are shown in FIG. 7 and FIG. 8, respectively.
The detection procedures followed were those described in Example 10 and Example 11. The comparisons of fluorescence for Dye-3 before and after it bound with DNA or with RNA in PBS are shown in FIG. 9 and FIG. 10, respectively. […]

salmon sperm DNA = assay: Fluorescence intensity of dye in PBS with salmon sperm DNA (excitation 633 nm); assay type: binding; settings: room temperature
Protocol: as §1, with “salmon sperm DNA” for “soft-shelled turtle (Trionyx sinensis) liver RNA”, “containing” for “containing 30 μg/mL, 10 μg/mL,”, “mg/mL,” for “μg/mL,”, “mg/mL, 0.3 mg/mL, 0.1 mg/mL” for “μg/mL”, “DNA.” for “RNA.”
FIG. 2 is a comparison of the relative fluorescence strength of Dye-1 in PBS before and after it is bound with DNA.
as §2
The detection procedures followed were those described in Example 10 and Example 11. The comparisons of fluorescence for Dye-3 before and after it bound with DNA or with RNA in PBS are shown in FIG. 9 and FIG. 10, respectively.
Table 1 compares the ratios of increase in fluorescence for Dye-1, Dye-2 and Dye-3 after vs before they bound with salmon sperm DNA in PBS.

| Compound | maximum excitation peak of dye/RNA complex [1] | maximum excitation peak of dye/DNA complex (salmon sperm DNA) |
| --- | --- | --- |
| OCCN1C=C/C(=C\C=C\c2sc3ccccc3[n+]2CCOc2ccccc2)c2ccccc21.[Br-] [Dye-3] | > 650 nm | > 650 nm |
| CCOC(=O)CCCN1C=C/C(=C\C=C\c2sc3ccccc3[n+]2CCO)c2ccccc21.[Br-] [Dye-2] | > 650 nm | > 650 nm |
| CCOC(=O)CCCCC[n+]1c(/C=C/C=C2\C=CN(Cc3ccccc3)c3ccccc32)sc2ccccc21.[Br-] [Dye-1] | about 655 nm | about 654 nm |
